Data published in article PMC4666396.
Results are given in words; binding and its absence hold for the method and conditions named. Binding calls can cover weak binding; strength is not graded here. Tags and fused reporters may be left off the sequences shown.

Chains of the proteins cited; added tags and fusions are not shown. Lines headed by an entry give the natural chain unless they say otherwise; changes in a name come on top.
UniProt Q15637: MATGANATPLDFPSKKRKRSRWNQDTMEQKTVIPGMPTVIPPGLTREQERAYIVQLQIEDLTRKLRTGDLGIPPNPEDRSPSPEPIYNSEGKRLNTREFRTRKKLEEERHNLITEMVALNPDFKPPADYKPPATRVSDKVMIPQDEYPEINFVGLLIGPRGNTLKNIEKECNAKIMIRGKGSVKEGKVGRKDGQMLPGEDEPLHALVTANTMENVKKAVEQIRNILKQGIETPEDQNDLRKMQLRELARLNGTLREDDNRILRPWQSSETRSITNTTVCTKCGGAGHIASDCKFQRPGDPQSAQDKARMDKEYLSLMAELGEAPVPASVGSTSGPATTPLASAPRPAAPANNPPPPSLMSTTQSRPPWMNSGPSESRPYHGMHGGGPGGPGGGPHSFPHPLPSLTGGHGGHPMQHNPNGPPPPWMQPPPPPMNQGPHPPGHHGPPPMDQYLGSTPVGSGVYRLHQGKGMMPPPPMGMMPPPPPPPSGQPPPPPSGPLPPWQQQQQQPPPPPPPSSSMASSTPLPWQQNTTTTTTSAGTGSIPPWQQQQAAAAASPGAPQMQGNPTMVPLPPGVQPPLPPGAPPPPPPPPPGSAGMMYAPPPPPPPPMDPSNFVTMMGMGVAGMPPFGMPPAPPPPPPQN

Assays:
GST-CHERP-SURP = molecular target: T1, GST-CHERP-SURP (UniProt Q8IWX8); test: pull-down; GST fusion proteins on glutathione-agarose; His6- or His6-MBP-tagged SF1 proteins in two-fold molar excess; NETN (20 mM Tris-HCl pH 8.0, 50 mM NaCl, 0.5% NP-40, 0.5 mM EDTA), 45 min 4°C; with or without RNase A; western blot with anti-His6; both purified
T1 sequence: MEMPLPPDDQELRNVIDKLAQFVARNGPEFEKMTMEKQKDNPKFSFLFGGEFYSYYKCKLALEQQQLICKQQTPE

GST-SF3a120-SURP1 = molecular target: T2, GST-SF3a120-SURP1 (UniProt Q15459); test: as above
T2 sequence: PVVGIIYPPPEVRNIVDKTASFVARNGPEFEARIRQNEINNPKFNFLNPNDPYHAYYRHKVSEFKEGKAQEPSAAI

Substance	binding (GST-CHERP-SURP)	binding (GST-SF3a120-SURP1)
His6-MBP-SF1-C370 ΔZn (from UniProt Q15637) (domain or fragment)	binds	binds
His6-MBP-SF1-C370 ΔKH (from UniProt Q15637) (domain or fragment)	binds	binds
